According to article PMC9798707, “Targeting SOST using a small-molecule compound retards breast cancer bone metastasis” (Molecular Cancer, 2022):
No constants are given. Whether binding was seen depends on the method and setting. In cells and extracts the contact can be indirect. Some entries that bind do so weakly or less than the wild type.

Chains of the proteins cited; added tags and fusions are not shown. Residues count along the entry.
UniProt P40763: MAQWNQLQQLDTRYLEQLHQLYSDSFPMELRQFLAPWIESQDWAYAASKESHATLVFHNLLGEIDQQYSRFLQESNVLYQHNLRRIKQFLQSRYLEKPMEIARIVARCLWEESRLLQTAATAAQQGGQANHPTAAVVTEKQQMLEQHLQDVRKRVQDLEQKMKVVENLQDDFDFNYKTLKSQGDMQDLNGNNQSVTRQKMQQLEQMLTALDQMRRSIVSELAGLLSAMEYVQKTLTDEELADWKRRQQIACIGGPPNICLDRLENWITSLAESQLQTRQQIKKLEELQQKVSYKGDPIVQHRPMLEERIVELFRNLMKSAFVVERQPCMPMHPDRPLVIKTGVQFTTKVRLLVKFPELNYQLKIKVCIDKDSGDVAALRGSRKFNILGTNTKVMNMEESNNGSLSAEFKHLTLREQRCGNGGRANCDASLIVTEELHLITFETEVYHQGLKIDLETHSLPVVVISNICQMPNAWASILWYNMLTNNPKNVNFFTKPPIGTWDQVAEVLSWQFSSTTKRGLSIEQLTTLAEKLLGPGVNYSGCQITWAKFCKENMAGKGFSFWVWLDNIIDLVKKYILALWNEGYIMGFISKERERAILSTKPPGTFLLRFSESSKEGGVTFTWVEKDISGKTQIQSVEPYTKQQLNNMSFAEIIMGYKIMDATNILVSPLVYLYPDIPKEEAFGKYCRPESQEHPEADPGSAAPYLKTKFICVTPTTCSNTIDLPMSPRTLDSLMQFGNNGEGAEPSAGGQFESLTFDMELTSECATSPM
UniProt Q9BQB4, residues 24-213: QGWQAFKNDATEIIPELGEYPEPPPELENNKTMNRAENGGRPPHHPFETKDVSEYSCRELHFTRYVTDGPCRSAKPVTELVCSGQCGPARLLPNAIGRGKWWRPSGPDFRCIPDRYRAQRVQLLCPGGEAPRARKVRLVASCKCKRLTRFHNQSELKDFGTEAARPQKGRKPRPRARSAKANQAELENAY

Experiments:
[1] = molecular target: Signal transducer and activator of transcription 3 (STAT3) (human (endogenous in SCP2)) (UniProt P40763); assay: co-IP; SCP2 cell lysate in RIPA buffer (50 µg/tube) with anti-SOST, anti-STAT3 or control isotype IgG (2 µg), 4 °C overnight; protein A/G plus-agarose beads; blotted with anti-STAT3 or anti-SOST
[2] = molecular target: Signal transducer and activator of transcription 3 (STAT3) (human (endogenous in SCP2)) (UniProt P40763); assay: condition: only lysate pre-treated with 200 μM S6 compound; co-IP; as a1, but the SCP2 cell lysate (1 ml) was pre-treated with 200 μM S6 compound at room temperature for one hour before the antibodies were added
[3] = molecular target: Sclerostin (SOST) (human (endogenous in SCP2)) (UniProt Q9BQB4); assay: co-IP; SCP2 cell lysate in RIPA buffer (50 µg/tube) with anti-SOST, anti-STAT3 or control isotype IgG (2 µg), 4 °C overnight; protein A/G plus-agarose beads; blotted with anti-STAT3 or anti-SOST

In the case of “Sclerostin (SOST) (from UniProt Q9BQB4 24-213)”, the binding [1] is reported as “binds” and the binding [2] is reported as “no binding”.

In the case of “Signal transducer and activator of transcription 3 (STAT3) (from UniProt P40763 1-770)”, the binding [3] is reported as “binds”.
